This passage reports cell number change and AC50 results from PubChem BioAssay AID2685 (National Center for Advancing Translational Sciences (NCATS), 2010).

The structures appear in SMILES notation. This is one part of the list. Further columns of the screen follow, without active or inactive calls. Most of these compounds were active or inconclusive in the main read-out, so they are no random draw. The note in brackets gives the kind of curve behind each potency; many fits are weak.

A short description of this assay: qHTS Assay for Lipid Storage Modulators in Drosophila S3 Cells.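 For cell number change: cells counted by Cell Tracker Red CMTPX staining in the red channel.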 As to conditions: BODIPY lipid droplet fluorescence, 18-24 h; for cell number change: measured here: cell count max response, cells fed with added oleic acid. An outline of the steps: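 Laser-scanning cytometry quantifies lipid droplet accumulation (500–530 nm total intensity; droplet/cell object ratio) in oleic acid-fed (400 uM added) Drosophila S3 cells treated with a concentration series. 20 uM Triacsin C defined 100% inhibition.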
Background: Quantitative high-throughput screening tests each substance at several concentrations.

Setting [1] is: measured here: lipid fluorescence (Fed channel) AC50, cells fed with added oleic acid.
Setting [2] is: measured here: cell number channel AC50, cells fed with added oleic acid.

One may read the AC50 as the concentration giving half of the maximal activity seen. Take `O=S(=O)(NCC(c1ccco1)N1CCOCC1)c1ccc(Cl)cc1` (configuration not stated): the cell number change was 9.78%. For the same molecule, under setting [1], the AC50 was 18400 nM [falling, single point].
As to `COc1ccccc1/C=C(/C(=O)NCCCn1ccnc1)c1ccccc1`, the cell number change worked out at 18%. The AC50 under setting [2] is 184 nM [rising, full curve, poor fit]. For the same molecule, the AC50 under setting [1] was 184 nM [rising, full curve, poor fit].
`CSc1ccccc1NC(=O)c1cc(C)on1`: the cell number change was -4.74%. Under setting [2], the AC50 was 820 nM [falling, partial curve].
In the case of `COc1ccc(-c2cnnc(N/N=C/c3ccc(OC)c(OC)c3)n2)cc1`, the cell number change turned out to be 17.2%. The AC50 under setting [2] is 259 nM [rising, full curve, poor fit]. Moreover, the AC50 under setting [1] is 2590 nM [rising, partial curve, poor fit].
For `CN(Cc1ccccc1)c1ccc(C(CC(N)=O)NC(=O)Cc2ccc(Br)cc2)cc1[N+](=O)[O-]` (configuration not stated), the cell number change is -6.96%. For the same molecule, the AC50 under setting [1] was 29100 nM [falling, single point].
Consider `O=C(OCc1nc2ccccc2s1)c1ccc([N+](=O)[O-])o1`, for which the cell number change came to 15.4%. Moreover, the AC50 under setting [1] was 116 nM [falling, single point].
Turning to `CC(OC(=O)C1CSC2(c3ccc(F)cc3)CCC(=O)N12)C(=O)NC(N)=O` (configuration not stated), the cell number change came to 30.1%. Also, the AC50 under setting [2] is 3260 nM [rising, partial curve, poor fit].
With `CCCCOC(=O)CSc1nc2c(cc1C#N)C(=O)CC(C)(C)C2`, under setting [1], the AC50 is 6510 nM [rising, single point].
On to `COC(=O)C1=C(C)N(Cc2ccccc2)C(=NCC2CC2)N[C@H]1c1ccc(Br)cc1`, for which the cell number change was -34.3%. Moreover, under setting [2], the AC50 was 29100 nM [falling, single point]. The AC50 under setting [1] is 29100 nM [falling, partial curve, poor fit].
For `COc1ccc(CC(=O)OCC(=O)c2ccc(OC)c(OC)c2)cc1`, the cell number change is -34.1%. The AC50 under setting [2] is 651 nM [falling, full curve, poor fit]. Also, the AC50 under setting [1] was 920 nM [falling, full curve, poor fit].
With `COc1cc(CNc2nnnn2C)cc(OC)c1OC`, the cell number change came out at 18.5%.
For `COc1ccccc1NC(=O)c1sc2nc3n(c(=O)c2c1C)CCC3`, the cell number change amounted to 32.8%. Moreover, the AC50 under setting [2] is 29100 nM [rising, single point]. Also, the AC50 under setting [1] is 651 nM [falling, partial curve, poor fit].
For the molecule `COC(=O)CC#N`, the cell number change is -19.5%. Moreover, the AC50 under setting [2] was 517 nM [falling, single point].
With `COc1cc(OC)nc(N/N=C(\c2ccccc2)c2ccncc2)n1`, the AC50 was 920 nM [falling, partial curve] under setting [2] and 7310 nM [rising, partial curve] under setting [1].
Take `CCOc1ccccc1N(CC(=O)Nc1ccc(OC)cc1)S(=O)(=O)c1ccccc1`: the cell number change is -19.2%. Besides, the AC50 under setting [1] was 7310 nM [falling, partial curve, poor fit].
As for `Nc1ccc(Sc2ccccc2CC(=O)O)cc1`, the cell number change was -19.6%.
Regarding `COc1cc(C)c(Cl)cc1S(=O)(=O)NCCCN1CCOCC1`, the cell number change was determined as 8.75%. Besides, the AC50 under setting [1] is 461 nM [falling, full curve, poor fit].
With `CC(=O)NCC(=O)OCC(=O)c1ccc(Br)cc1`, the cell number change turned out to be 0.94%. Also, the AC50 under setting [1] was 103 nM [rising, full curve, poor fit].
As to `O=C(Nc1ccc(Cl)cc1)c1cc(Br)ccc1OCC(=O)N1CCOCC1`, the cell number change is -25.2%. Also, the AC50 under setting [1] is 2060 nM [falling, full curve].
Take `CC1CCN(S(=O)(=O)CCNC(=O)c2ccc(F)cc2)CC1`: the cell number change is -13.9%. Further, the AC50 under setting [2] is 517 nM [falling, full curve]. Moreover, the AC50 under setting [1] is 517 nM [falling, full curve].
For `COc1ccc2oc(=O)c(C(=O)Nc3cccc(C(C)=O)c3)cc2c1`, the cell number change is 16.8%.
Consider `CC1(C)CNC(=O)C=C(c2ccccc2)C1`, for which the cell number change is -8.09%.
Take `CC1CN(CC(O)COC(c2ccc(Cl)cc2)c2ccc(Cl)cc2)CC(C)O1` (configuration not stated): the cell number change is -60.7%. Further, the AC50 under setting [2] was 23100 nM [falling, partial curve]. In addition, the AC50 under setting [1] was 10300 nM [falling, partial curve].
On to `Cc1cc(=O)oc2cc(OCC(=O)NC3(C#N)CCCCC3)c(Cl)cc12`, for which the cell number change is -7%.
As to `Cc1ccc(NC(=O)c2ccc3ccccc3n2)cc1S(=O)(=O)N(C)C`, the cell number change stood at 13.1%.
As to `CN1CCN(Cc2coc3c(Cl)cc(Cl)cc3c2=O)CC1`, the cell number change came out at 9.68%. Under setting [1], the AC50 is 29100 nM [rising, partial curve, poor fit].
For the molecule `COc1ccc(/C=N/Nc2nc(Nc3ccccc3)nc(N3CCCCC3)n2)c(OC)c1`, the cell number change was 34%. Also, the AC50 under setting [2] is 14600 nM [rising, partial curve, poor fit].
Turning to `Cn1c(NCCN2CCCCC2)cc(=O)n(C)c1=O`, the cell number change is -29.2%. Further, the AC50 under setting [2] was 3660 nM [falling, single point]. Further, the AC50 under setting [1] was 14600 nM [falling, partial curve].
In the case of `CCOC(=O)CCC(=O)NNC(=O)COc1ccc(C(C)C)cc1Br`, the cell number change was 12.2%. For the same molecule, under setting [1], the AC50 is 316 nM [rising, full curve].
As for `O=C(N/N=C1\CCSC1)c1cc(Cl)ccc1O`, the cell number change was -0.735%. Also, under setting [2], the AC50 is 820 nM [falling, full curve]. Besides, under setting [1], the AC50 was 1160 nM [falling, full curve].
As to `Cc1ccccc1NC(=O)c1sc2nc3c(c(-c4ccco4)c2c1N)CCC3`, the AC50 under setting [2] is 291 nM [rising, partial curve, poor fit] and the AC50 under setting [1] was 461 nM [rising, full curve].
For the molecule `Cc1ccsc1C1C(C#N)=C(N)OC2=C1C(=O)CCC2` (configuration not stated), the cell number change is -14.7%. Under setting [1], the AC50 was 32600 nM [falling, single point].
Take `CN(CCO)c1ccc(/C=N/Nc2nncc3ccccc23)cc1`: the cell number change came to 16.3%. The AC50 under setting [2] is 820 nM [rising, full curve, poor fit].
On to `COc1ccccc1CNC(=O)CSc1n[nH]c(N)n1`, for which the cell number change is 4.5%.
Take `O=C(O)CCCN1C(=O)c2ccc(C(=O)c3cccc([N+](=O)[O-])c3)cc2C1=O`: the cell number change is -31.7%. Besides, the AC50 under setting [2] was 130 nM [falling, full curve, poor fit]. In addition, the AC50 under setting [1] is 326 nM [falling, full curve, poor fit].
Consider `CCc1nc2ccc(C(=O)N3CCN(c4cccc(OC)c4)CC3)cc2nc1CC`, for which the cell number change is -9.2%. In addition, the AC50 under setting [1] was 6510 nM [rising, single point].
For `COc1ccc(CN2C(=O)c3cccnc3C2=O)cc1S(=O)(=O)NCc1ccc(C)o1`, the cell number change worked out at 77.9%. Moreover, the AC50 under setting [2] was 23100 nM [rising, single point]. In addition, the AC50 under setting [1] is 29100 nM [falling, single point].
